Experimental data published in PMC2677661.
These are yes or no findings as the source states them, for the method shown. In cells and extracts the contact can be indirect. Some results given as binding are weak or reduced against the parent protein; the word gives no strength.

Sequences of proteins named here, by UniProt entry; tags and fusion partners are left off.
UniProt Q01094: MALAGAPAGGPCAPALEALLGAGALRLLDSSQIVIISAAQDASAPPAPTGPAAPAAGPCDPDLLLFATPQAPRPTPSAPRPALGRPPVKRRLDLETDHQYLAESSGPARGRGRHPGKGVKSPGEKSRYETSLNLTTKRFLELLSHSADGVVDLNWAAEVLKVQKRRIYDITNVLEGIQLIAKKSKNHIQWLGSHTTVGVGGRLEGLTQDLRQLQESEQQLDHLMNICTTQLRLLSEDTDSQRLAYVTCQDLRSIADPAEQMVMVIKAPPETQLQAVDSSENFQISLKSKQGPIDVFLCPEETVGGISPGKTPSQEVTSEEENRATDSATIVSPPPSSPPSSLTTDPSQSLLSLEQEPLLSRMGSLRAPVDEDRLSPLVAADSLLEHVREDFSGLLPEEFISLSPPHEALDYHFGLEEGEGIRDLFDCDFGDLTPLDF

Target: GST-E2F1 (UniProt Q01094)
Test: pull-down; GST-E2F1 loaded on glutathione-Sepharose 4b beads; 20 µl 35S-labelled in vitro translated DRIL1, unmodified or sumoylated (mixture of unsumoylated and monosumoylated); 2 hours at 4°C; 50 mM Tris pH 7.5, 150 mM NaCl, 0.1% Nonidet P-40, 1 mM DTT, 20 mM NEM; autoradiography, quantified by ImageJ; only the target purified

B1: DRIL1 (E2FBP1/ARID3A/DRIL1), wild type, unsumoylated (protein, UniProt Q99856 1-593)
chain: MKLQAVMETLLQRQQRARQELEARQQLPPDPPAAPPGRARAAPDEDREPESARMQRAQMAALAAMRAAAAGLGHPASPGGSEDGPPGSEEEDAAREGTPGSPGRGREGPGEEHFEDMASDEDMKPKWEEEEMEEDLGEDEEEEEEDYEDEEEEEDEEGLGPPGPASLGTTALFPRKAQPPQAFRGDGVPRVLGGQERPGPGPAHPGGAAHVAPQLQPPDHGDWTYEEQFKQLYELDGDPKRKEFLDDLFSFMQKRGTPVNRIPIMAKQVLDLFMLYVLVTEKGGLVEVINKKLWREITKGLNLPTSITSAAFTLRTQYMKYLYPYECEKRGLSNPNELQAAIDSNRREGRRQSFGGSLFAYSPGGAHGMLSSPKLPVSSLGLAASTNGSSITPAPKIKKEEDSAIPITVPGRLPVSLAGHPVVAAQAAAVQAAAAQAAVAAQAAALEQLREKLESAEPPEKKMALVADEQQRLMQRALQQNFLAMAAQLPMSIRINSQASESRQDSAVNLTGTNGSNSISMSVEINGIMYTGVLFAQPPAPTPTSAPNKGGGGGGGSSSNAGGRGGNTGTSGGQAGPAGLSTPSTSTSNNSLP
modifications: 35S-methionine label
binding: binds
